According to patent publication US7241873B2, “Recombinant anti-osteopontin antibody and use thereof” (Juridical Foundation the Chemo-sero-therapeutic Research …, priority 2001, dated 2007):
These are yes or no findings as the source states them, for the method shown. Some entries that bind do so weakly or less than the wild type. No end group written: not given here. *: point of attachment. Biotin = O=C1N[C@H]2[C@H](CS[C@H]2CCCCC(=O)*)N1

Key:
[1] = target: GST-N half (human) [GST: P08515]; assay: Western blotting
[2] = target: GST-OPN-b (human) [GST: P08515]; assay: Western blotting

B1: murine monoclonal antibody 2K1 (antibody, V domains shown)
VH: QVQLQQSGAELVRPGASVKLSCKALGYTFTDYEMHWVKQTPVHGLEWIGAIHPGRGGTAYNQKFKGKATLTADKSSSTAYMELSSLTSEDSAVYYCTRITGYFDVWGAGTTVTVSS
VL: DVLMTQTPLSLPVSLGDQASISCRSSQSIVHSNGNTYLEWYLQKPGQSPKLLIYKVSNRFSGVPDRFSGSGSGTDFTLKISRVEAEDLGVYYCFQGSHVPLTFGAGTKLELKR
notes: also called murine 2K1 antibody; murine antibody 2K1
[1]
  binding: binds
[2]
  binding: binds
